Test results taken from patent publication US5140102A, “Pentadecapeptide, guanylin, which stimulates intestinal guanylate cyclase” (Monsanto Company, priority 1991, dated 1992).
Part of at least one peptide drawing is inferred or uncertain, most often the ends. Positions of bridges follow the written chain, without caps; N, C: chain ends. Residues, ends and D or L forms follow the SMILES beside them.

Tested on: T84 cells
Test: Displacement of 125I-STa specific binding from T84 cells
Set-up: species or system human
Details: 30 min at 37° C.

CC[C@H](C)[C@@H]1NC(=O)[C@H](CCC(=O)O)NC(=O)[C@@H](NC(=O)[C@@H](NC(=O)[C@H](CC(N)=O)NC(=O)[C@@H]2CCCN2)[C@@H](C)O)CSSC[C@@H]2NC(=O)[C@H](C)NC(=O)[C@H](C)NC(=O)[C@H](Cc3ccc(O)cc3)NC(=O)[C@H](C)NC(=O)[C@H](CSSC[C@@H](C(=O)O)NC(=O)CNC(=O)[C@H]([C@@H](C)O)NC2=O)NC1=O [guanylin] (H-PNTCEICAYAACTGC-OH; disulfide 4-12, 7-15)
displacement of specifically bound 125I-STa: concentration-dependent displacement
